In the supplement of paper PMC10849652:
Some of the results follow.

The chains behind the UniProt entries cited, without tags or fusion partners. Where a name states a change or a piece, a line headed by the entry shows the natural chain unless it says otherwise.
UniProt O14810: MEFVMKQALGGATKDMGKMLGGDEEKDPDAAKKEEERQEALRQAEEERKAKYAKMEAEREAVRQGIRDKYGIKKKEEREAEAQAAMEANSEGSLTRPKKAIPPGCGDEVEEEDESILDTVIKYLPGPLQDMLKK
UniProt Q8N9A8: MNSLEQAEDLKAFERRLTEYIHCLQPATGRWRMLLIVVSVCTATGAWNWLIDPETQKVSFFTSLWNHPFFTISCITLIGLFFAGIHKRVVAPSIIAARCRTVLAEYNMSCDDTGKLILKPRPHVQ
UniProt Q86WW8: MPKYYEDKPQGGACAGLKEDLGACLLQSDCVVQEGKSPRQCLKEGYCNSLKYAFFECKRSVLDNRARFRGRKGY
UniProt Q9H3G5: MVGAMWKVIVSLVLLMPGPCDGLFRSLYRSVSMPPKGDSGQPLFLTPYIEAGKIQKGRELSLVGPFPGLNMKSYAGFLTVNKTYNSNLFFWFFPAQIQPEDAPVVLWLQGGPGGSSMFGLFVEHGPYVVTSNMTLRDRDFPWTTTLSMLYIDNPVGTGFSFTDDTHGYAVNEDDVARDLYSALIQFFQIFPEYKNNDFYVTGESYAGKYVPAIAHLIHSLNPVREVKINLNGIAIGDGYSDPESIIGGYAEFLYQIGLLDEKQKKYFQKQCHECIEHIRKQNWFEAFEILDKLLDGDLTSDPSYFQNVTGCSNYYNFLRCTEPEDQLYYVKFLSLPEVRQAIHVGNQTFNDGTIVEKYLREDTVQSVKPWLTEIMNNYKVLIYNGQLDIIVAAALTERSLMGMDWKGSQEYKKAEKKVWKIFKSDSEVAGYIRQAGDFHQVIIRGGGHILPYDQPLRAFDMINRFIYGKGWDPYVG
UniProt Q9BU20: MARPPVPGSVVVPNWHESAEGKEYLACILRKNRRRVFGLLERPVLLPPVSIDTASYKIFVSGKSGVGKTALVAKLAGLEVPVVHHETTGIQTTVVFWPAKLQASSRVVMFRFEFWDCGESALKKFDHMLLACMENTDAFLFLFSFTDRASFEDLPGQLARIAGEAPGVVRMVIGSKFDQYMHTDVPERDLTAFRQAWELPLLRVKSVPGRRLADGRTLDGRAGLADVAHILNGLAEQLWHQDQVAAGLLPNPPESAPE
UniProt Q8IWV2: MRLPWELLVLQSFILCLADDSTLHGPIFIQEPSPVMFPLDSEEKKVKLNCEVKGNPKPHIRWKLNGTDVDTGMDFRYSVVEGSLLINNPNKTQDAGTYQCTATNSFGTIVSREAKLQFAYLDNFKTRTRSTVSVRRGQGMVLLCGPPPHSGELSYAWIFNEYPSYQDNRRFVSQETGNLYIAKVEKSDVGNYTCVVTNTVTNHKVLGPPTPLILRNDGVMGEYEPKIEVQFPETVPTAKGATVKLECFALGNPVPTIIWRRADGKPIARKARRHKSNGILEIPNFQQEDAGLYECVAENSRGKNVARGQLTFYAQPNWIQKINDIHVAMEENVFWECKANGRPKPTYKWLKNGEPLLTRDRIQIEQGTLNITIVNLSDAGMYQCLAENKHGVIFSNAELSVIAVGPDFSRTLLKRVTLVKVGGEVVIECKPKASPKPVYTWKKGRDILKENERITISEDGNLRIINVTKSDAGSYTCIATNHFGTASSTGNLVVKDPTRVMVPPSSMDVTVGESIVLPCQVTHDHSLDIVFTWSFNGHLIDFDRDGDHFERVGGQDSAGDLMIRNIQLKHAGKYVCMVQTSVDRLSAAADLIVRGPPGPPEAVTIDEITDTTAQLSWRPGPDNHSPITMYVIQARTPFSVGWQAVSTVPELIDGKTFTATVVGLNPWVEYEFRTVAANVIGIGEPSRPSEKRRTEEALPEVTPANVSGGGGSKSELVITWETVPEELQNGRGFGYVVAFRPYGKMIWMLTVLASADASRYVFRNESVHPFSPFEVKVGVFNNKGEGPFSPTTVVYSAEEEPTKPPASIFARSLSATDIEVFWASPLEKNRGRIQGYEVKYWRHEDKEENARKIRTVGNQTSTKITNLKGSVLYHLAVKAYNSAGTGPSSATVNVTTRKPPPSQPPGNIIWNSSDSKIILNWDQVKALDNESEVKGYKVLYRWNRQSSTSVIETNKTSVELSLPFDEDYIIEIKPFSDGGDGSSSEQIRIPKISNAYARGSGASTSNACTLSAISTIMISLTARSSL
UniProt Q96FN4: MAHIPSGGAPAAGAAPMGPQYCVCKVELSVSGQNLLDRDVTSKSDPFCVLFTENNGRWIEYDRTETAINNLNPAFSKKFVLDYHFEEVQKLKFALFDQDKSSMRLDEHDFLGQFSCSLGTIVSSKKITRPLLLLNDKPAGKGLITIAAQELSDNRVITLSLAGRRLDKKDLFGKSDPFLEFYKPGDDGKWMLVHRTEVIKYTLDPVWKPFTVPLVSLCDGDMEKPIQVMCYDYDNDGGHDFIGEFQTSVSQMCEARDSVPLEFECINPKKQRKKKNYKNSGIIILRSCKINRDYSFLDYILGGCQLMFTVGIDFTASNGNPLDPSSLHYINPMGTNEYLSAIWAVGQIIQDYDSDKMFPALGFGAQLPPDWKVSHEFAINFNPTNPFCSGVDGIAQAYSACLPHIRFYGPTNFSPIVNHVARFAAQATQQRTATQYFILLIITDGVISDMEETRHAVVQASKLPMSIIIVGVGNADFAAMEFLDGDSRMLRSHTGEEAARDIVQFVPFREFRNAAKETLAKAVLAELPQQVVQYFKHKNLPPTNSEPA
UniProt Q9NRU3: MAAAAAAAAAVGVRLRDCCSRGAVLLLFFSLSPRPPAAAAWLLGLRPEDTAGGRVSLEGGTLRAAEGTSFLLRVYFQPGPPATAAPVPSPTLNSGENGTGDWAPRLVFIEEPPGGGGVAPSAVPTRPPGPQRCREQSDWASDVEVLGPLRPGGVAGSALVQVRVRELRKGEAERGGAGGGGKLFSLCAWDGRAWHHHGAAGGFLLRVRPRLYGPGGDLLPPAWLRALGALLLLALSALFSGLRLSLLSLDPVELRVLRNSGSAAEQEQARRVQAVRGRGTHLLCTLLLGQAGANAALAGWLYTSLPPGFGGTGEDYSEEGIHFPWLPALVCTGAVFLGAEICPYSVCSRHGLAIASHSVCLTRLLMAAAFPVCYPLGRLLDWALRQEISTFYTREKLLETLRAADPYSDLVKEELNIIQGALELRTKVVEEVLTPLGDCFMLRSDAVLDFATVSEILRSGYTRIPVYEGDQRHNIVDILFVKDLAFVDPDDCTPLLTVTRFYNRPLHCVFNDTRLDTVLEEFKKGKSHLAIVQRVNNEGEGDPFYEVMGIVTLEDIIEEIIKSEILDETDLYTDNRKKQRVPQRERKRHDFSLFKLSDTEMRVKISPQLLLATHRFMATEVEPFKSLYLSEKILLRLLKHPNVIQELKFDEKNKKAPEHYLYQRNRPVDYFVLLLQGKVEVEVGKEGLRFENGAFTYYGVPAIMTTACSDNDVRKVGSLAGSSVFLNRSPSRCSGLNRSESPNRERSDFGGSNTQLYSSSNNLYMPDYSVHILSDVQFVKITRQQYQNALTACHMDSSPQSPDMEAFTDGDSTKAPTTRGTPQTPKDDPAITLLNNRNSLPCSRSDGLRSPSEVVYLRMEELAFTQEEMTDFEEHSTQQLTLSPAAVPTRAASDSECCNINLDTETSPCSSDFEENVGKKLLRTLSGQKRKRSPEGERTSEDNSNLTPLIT
UniProt G9CGD6: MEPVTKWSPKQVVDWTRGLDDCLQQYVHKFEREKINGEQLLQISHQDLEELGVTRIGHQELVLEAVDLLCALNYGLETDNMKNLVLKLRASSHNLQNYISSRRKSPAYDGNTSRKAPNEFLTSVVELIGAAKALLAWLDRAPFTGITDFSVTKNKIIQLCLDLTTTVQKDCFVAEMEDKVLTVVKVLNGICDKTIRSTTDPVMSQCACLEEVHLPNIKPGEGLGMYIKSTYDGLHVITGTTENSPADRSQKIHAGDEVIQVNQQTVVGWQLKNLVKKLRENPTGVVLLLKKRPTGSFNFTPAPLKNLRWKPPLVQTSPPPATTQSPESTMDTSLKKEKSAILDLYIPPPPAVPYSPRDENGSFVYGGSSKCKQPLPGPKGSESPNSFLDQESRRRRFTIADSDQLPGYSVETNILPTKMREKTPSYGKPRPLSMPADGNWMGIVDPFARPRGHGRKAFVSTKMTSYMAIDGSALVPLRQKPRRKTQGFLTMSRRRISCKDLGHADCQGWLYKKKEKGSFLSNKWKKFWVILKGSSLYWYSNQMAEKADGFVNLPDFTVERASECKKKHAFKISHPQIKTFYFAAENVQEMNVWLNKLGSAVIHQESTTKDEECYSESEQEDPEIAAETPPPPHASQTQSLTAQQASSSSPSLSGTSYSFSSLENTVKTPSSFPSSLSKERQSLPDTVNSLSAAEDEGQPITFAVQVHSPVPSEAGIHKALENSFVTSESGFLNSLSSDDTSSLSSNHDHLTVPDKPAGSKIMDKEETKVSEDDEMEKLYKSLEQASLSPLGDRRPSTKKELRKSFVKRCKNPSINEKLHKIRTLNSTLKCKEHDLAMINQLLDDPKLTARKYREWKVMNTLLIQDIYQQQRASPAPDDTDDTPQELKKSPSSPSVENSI
UniProt Q12887: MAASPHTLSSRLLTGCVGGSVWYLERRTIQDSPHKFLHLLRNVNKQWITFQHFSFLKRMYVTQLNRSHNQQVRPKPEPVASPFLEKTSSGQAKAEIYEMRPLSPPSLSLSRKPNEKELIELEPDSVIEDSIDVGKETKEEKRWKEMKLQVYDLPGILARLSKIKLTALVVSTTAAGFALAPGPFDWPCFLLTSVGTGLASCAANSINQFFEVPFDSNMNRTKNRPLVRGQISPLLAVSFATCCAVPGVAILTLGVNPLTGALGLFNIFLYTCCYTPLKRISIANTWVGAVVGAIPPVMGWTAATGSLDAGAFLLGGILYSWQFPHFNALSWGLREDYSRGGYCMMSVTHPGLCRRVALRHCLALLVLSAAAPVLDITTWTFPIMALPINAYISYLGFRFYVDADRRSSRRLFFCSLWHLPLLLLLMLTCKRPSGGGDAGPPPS
UniProt Q8NHY2, whole entry, looked up: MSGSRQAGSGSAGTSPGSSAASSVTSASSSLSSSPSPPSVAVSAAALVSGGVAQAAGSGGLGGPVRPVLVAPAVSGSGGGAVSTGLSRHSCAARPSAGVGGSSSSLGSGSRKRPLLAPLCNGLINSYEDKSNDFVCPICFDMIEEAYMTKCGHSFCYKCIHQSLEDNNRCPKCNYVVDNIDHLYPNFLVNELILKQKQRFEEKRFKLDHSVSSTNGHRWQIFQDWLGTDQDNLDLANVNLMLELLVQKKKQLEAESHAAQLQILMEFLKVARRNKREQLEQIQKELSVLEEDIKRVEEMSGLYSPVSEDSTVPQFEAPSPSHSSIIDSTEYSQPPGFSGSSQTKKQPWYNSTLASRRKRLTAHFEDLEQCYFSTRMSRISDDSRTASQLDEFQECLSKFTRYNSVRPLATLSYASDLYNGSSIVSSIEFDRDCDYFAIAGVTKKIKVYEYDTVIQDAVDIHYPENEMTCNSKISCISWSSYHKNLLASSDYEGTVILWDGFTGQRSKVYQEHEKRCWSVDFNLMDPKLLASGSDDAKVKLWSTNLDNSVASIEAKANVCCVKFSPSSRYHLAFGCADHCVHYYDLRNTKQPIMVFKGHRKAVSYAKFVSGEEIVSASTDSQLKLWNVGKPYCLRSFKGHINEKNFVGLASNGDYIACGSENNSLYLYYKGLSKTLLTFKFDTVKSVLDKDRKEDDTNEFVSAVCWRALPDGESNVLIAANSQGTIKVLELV
UniProt Q8N137: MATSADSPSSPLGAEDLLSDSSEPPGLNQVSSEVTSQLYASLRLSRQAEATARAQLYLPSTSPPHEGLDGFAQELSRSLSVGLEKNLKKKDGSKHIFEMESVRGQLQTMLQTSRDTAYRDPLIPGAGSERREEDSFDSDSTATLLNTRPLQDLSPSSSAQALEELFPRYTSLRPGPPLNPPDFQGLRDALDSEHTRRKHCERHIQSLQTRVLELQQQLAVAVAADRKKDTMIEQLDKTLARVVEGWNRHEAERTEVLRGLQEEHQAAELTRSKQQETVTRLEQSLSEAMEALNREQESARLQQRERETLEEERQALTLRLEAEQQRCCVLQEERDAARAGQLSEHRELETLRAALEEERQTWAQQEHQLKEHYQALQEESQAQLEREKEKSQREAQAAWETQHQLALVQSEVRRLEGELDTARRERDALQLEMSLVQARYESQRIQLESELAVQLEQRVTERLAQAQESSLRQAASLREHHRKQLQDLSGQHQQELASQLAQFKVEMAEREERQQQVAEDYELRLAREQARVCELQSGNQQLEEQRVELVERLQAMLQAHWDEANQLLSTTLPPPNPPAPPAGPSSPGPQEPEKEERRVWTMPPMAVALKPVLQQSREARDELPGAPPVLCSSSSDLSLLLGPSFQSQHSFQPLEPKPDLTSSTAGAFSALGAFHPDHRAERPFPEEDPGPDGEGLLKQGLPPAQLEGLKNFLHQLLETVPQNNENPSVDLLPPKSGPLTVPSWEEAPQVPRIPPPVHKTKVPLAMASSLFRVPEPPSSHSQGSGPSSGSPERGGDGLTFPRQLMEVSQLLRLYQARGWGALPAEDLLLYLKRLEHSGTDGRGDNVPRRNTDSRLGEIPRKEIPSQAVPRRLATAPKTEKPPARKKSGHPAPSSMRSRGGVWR

Assays:
Assay in all cases: log2 fold change, soluble protein after heating vs DMSO (PISA); higher = thermal stabilisation; K562 lysate, 10 uM; active = over 0.2 and 3.5 SD of the protein, either way, in both replicates (recomputed)
alvocidib = compound: CN1CC[C@H](c2c(O)cc(O)c3c(=O)cc(-c4ccccc4Cl)oc23)[C@H](O)C1 [alvocidib]
How it was run: (§1)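 To prepare the extract, K562 pellets were dounce-homogenised in PBS pH 7.4 with 1 mM MgCl2, giving crude material at 1 mg/mL protein. This was treated with 10 μM compound for 30 min, then heated in aliquots for 3 min over 48°C-58°C before pooling and addition of NP-40 to 0.5% at 4°C. Centrifugation at 21,000xg for 90 min left soluble protein in the supernatant, which TMTpro 16plex LC-MS/MS quantified with equalised channel sums. Results are log-two fold changes in thermal stability compared with solvent controls, from duplicates.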

alisertib = compound: COc1cc(Nc2ncc3c(n2)-c2ccc(Cl)cc2C(c2c(F)cccc2OC)=NC3)ccc1C(=O)O [alisertib]
How it was run: as §1

gefitinib = compound: COc1cc2ncnc(Nc3ccc(F)c(Cl)c3)c2cc1OCCCN1CCOCC1 [gefitinib]
How it was run: as §1

[1] = compound: C[C@H](C1=CC=C(C=C1)C(=O)NC2=C3C=CNC3=NC=C2)N
How it was run: as §1

gandotinib = compound: Cc1cc(Nc2cc(CN3CCOCC3)c3nc(C)c(Cc4ccc(Cl)cc4F)n3n2)n[nH]1 [gandotinib]
How it was run: as §1

[2] = compound: Cc1cccc(CC(=O)N2CCc3c2ccc(-c2cn(C)c4ncnc(N)c24)c3F)n1
How it was run: as §1

[3] = compound: CNc1nc(-c2ccc3c(N)n[nH]c3c2)cc(N2C[C@@H](C(=O)NC3CCCCC3)CC[C@H]2C)n1
How it was run: as §1

encorafenib = compound: COC(=O)N[C@@H](C)CNc1nccc(-c2cn(C(C)C)nc2-c2cc(Cl)cc(NS(C)(=O)=O)c2F)n1 [encorafenib]
How it was run: as §1

[4] = compound: COC(=O)[C@H](CCSC)NC(=O)C1=C(C=C(C=C1)NC[C@H](CS)N)C2=CC=CC=C2
How it was run: as §1

[5] = compound: COc1cc2nc(-c3cc(F)ccc3O)nc(N[C@@H]3CNC[C@H]3C(C)(C)O)c2cc1OC
How it was run: as §1

lapatinib = compound: CS(=O)(=O)CCNCc1ccc(-c2ccc3ncnc(Nc4ccc(OCc5cccc(F)c5)c(Cl)c4)c3c2)o1 [lapatinib]
How it was run: as §1

crizotinib = compound: C[C@@H](Oc1cc(-c2cnn(C3CCNCC3)c2)cnc1N)c1c(Cl)ccc(F)c1Cl [crizotinib]
How it was run: as §1

duvelisib = compound: C[C@H](Nc1ncnc2nc[nH]c12)c1cc2cccc(Cl)c2c(=O)n1-c1ccccc1 [duvelisib]
How it was run: as §1

tozasertib = compound: Cc1cc(Nc2cc(N3CCN(C)CC3)nc(Sc3ccc(NC(=O)C4CC4)cc3)n2)n[nH]1 [tozasertib]
How it was run: as §1

doramapimod = compound: Cc1ccc(-n2nc(C(C)(C)C)cc2NC(=O)Nc2ccc(OCCN3CCOCC3)c3ccccc23)cc1 [doramapimod]
How it was run: as §1

Tubastatin A = compound: CN1CCc2c(c3ccccc3n2Cc2ccc(C(=O)NO)cc2)C1 [Tubastatin A]
How it was run: as §1

pictilisib = compound: CS(=O)(=O)N1CCN(Cc2cc3nc(-c4cccc5[nH]ncc45)nc(N4CCOCC4)c3s2)CC1 [pictilisib]
How it was run: as §1

bafetinib = compound: Cc1ccc(NC(=O)c2ccc(CN3CC[C@H](N(C)C)C3)c(C(F)(F)F)c2)cc1Nc1nccc(-c2cncnc2)n1 [bafetinib]
How it was run: as §1

defactinib = compound: CNC(=O)c1ccc(Nc2ncc(C(F)(F)F)c(NCc3nccnc3N(C)S(C)(=O)=O)n2)cc1 [defactinib]
How it was run: as §1

[6] = compound: CNC(=O)C1=CC=CC=C1NC2=NC(=NC=C2Cl)NC3=C(C=C(C=C3)N4CCOCC4)OC
How it was run: as §1

Target	log2 fold change (alvocidib)	log2 fold change (alisertib)	log2 fold change (gefitinib)	log2 fold change [1]	log2 fold change (gandotinib)	log2 fold change [2]	log2 fold change [3]	log2 fold change (encorafenib)	log2 fold change [4]	log2 fold change [5]	log2 fold change (lapatinib)	log2 fold change (crizotinib)	log2 fold change (duvelisib)	log2 fold change (tozasertib)	log2 fold change (doramapimod)	log2 fold change (Tubastatin A)	log2 fold change (pictilisib)	log2 fold change (bafetinib)	log2 fold change (defactinib)	log2 fold change [6]
COL6A1 (UniProt P12109)	inactive: 0.024	inactive: 0.114	inactive: -0.074	inactive: 0.11	inactive: -0.073	inactive: 0														
COPS2 (UniProt P61201)	inactive: -0.017	inactive: 0.027	inactive: 0.219	inactive: -0.024	inactive: 0.071	inactive: -0.034	inactive: 0.088	inactive: 0.002	inactive: -0.016	inactive: -0.04	inactive: 0.001	inactive: -0.088	inactive: -0.049	inactive: -0.04	inactive: -0.066					
COL25A1 (UniProt Q9BXS0)		inactive: -0.07	inactive: 0.074							inactive: -0.121	inactive: -0.13					inactive: 0.018	inactive: -0.216	inactive: -0.34		
CPLX1 (UniProt O14810)							inactive: -0.127	inactive: -0.017	inactive: -0.415	inactive: -0.005	inactive: -0.095		inactive: -0.001	inactive: 0.167		inactive: 0.04			inactive: 0.144	
CNEP1R1 isoform 2 (UniProt Q8N9A8)		inactive: 0.263	inactive: -0.098														inactive: 0.003	inactive: -0.034		
COMTD1 (UniProt Q86VU5)		inactive: 0.069	inactive: 0.125				inactive: 0.014	inactive: 0.001	inactive: 0.257	inactive: -0.005	inactive: 0.113	inactive: -0.229	inactive: 0.028	inactive: 0.049	inactive: -0.029	inactive: -0.158	inactive: 0.033	inactive: -0.119	inactive: -0.048	inactive: 0.147
CNIH4 (UniProt Q9P003)		inactive: 0.1	inactive: 0.17				inactive: 0.049	inactive: 0.06	inactive: -0.249	inactive: 0.031	inactive: 0.005	inactive: -0.055	inactive: 0.092	inactive: -0.06	inactive: -0.082	inactive: 0.1	inactive: -0.139	inactive: -0.248	inactive: 0.442	inactive: 0.048
CNNM2 (UniProt Q9H8M5)	inactive: -0.049			inactive: -0.039	inactive: -0.064	inactive: 0.036	inactive: -0.01	inactive: -0.048	inactive: 0.033	inactive: -0.003	inactive: 0.006	inactive: 0.021	inactive: 0.041	inactive: -0.078	inactive: -0.026	inactive: -0.105			inactive: 0.065	inactive: 0.007
CNRIP1 (UniProt Q96F85)							inactive: -0.038			inactive: 0.124	inactive: -0.198	inactive: -0.08	inactive: -0.138		inactive: 0.403	inactive: -0.187	inactive: -0.03	inactive: 0.232	inactive: -0.486	inactive: 0.037
CRACR2B (UniProt Q8N4Y2)							inactive: 0.041						inactive: 0.202							inactive: 0.051
COA5 (UniProt Q86WW8)	inactive: 0.125			inactive: 0.09	inactive: -0.113	inactive: -0.093	inactive: 0.002	inactive: -0.012	inactive: 0.05			inactive: 0.019	inactive: -0.049	inactive: -0.094	inactive: -0.054	inactive: -0.074	inactive: -0.01	inactive: -0.009	inactive: -0.018	inactive: 0.091
COQ3 (UniProt Q9NZJ6)	inactive: 0.002	inactive: 0.05	inactive: 0.017	inactive: -0.031	inactive: -0.002	inactive: 0.044		inactive: 0.076	inactive: -0.101	inactive: 0.019	inactive: 0.016			inactive: 0.005		inactive: -0.066	inactive: 0.008	inactive: -0.054	inactive: -0.011	inactive: 0.031
COL12A1 (UniProt Q99715)							inactive: 0.531	inactive: 0.003	inactive: -0.092	active: 1.32	inactive: -0.117	inactive: -0.031	inactive: 0.086	inactive: -0.021	inactive: 0.88				inactive: -0.059	inactive: 0.095
CPVL (UniProt Q9H3G5)	inactive: -0.054	inactive: 0.06	inactive: -0.063	inactive: -0.152	inactive: 0.064	inactive: 0.116	inactive: 0.173			inactive: 0.036	inactive: -0.065	inactive: -0.293	inactive: 0.026		inactive: 0.153	inactive: 0.137	inactive: 0.035	inactive: 0.072	inactive: -0.137	inactive: 0.008
COPS9 (UniProt Q8WXC6)										inactive: 0.163	inactive: 0.148					inactive: -0.272				inactive: 0.087
CPLANE2 (UniProt Q9BU20)												inactive: -0.094			inactive: 0.118	inactive: 0.047				inactive: -0.153
CPEB3 (UniProt Q8NE35)												inactive: 0.038			inactive: 0.053	inactive: 0.14				inactive: 0.065
CNTN4 (UniProt Q8IWV2)	inactive: -0.148	inactive: -0.074	inactive: -0.022	inactive: -0.432	inactive: 0.545	inactive: 0.484		inactive: -0.193	inactive: 0.124	inactive: 0.03	inactive: -0.052	inactive: -0.268		inactive: -0.182	inactive: -0.067	inactive: 0.185	inactive: -0.066	inactive: -0.145	inactive: -0.104	inactive: 0.021
CPNE2 (UniProt Q96FN4)	inactive: -0.234	inactive: 0.015	inactive: -0.086	inactive: -0.323	inactive: 0.119	inactive: 0.229	inactive: 0.067	inactive: 0.012	inactive: -0.063	inactive: -0.01	inactive: 0.036	inactive: 0.045	inactive: 0.034	inactive: 0.014	inactive: -0.083	inactive: 0.004	inactive: -0.179	inactive: 0.296		inactive: 0.016
CNNM1 (UniProt Q9NRU3)		inactive: -0.015	inactive: -0.005				inactive: 0.131	inactive: -0.019	inactive: 0.042				inactive: 0.013	inactive: -0.05					inactive: 0.031	inactive: 0.025
CNK3/IPCEF1 isoform 2 (UniProt G9CGD6)	inactive: -0.483			active: -1.84	inactive: 0.326	inactive: 0.4	inactive: -0.007	inactive: 0.041	inactive: -0.062				inactive: 0.129	inactive: 0.105		inactive: -0.048			inactive: -0.082	inactive: -0.012
COX10 (UniProt Q12887)							inactive: 0.174	inactive: -0.22	inactive: -0.157			inactive: -0.01	inactive: 0.06	inactive: 0.004	inactive: -0.039	inactive: 0.072				
COP1 (UniProt Q8NHY2)	inactive: -0.03	inactive: -0.012	inactive: 0	inactive: -0.078	inactive: 0.105	inactive: -0.124	inactive: -0.057			inactive: 0.014	inactive: 0.006	inactive: -0.007	inactive: -0.017		inactive: -0.055	inactive: 0.042				inactive: -0.058
COL6A3 (UniProt P12111)	inactive: 0.045	inactive: -0.323	inactive: 0.164	inactive: -0.04	inactive: -0.036	inactive: 0.048	inactive: 0.13					inactive: -0.023	inactive: 0.013		inactive: 0.032	inactive: 0.017	inactive: -0.019	inactive: 0.036		inactive: -0.126
CNTROB isoform 2 (UniProt Q8N137)							inactive: -0.236						inactive: -0.216							inactive: 0.066

2 successive records from above, quoted:
Target	log2 fold change (alvocidib)	log2 fold change (alisertib)	log2 fold change (gefitinib)	log2 fold change [1]	log2 fold change (gandotinib)	log2 fold change [2]	log2 fold change [3]	log2 fold change (encorafenib)	log2 fold change [4]	log2 fold change [5]	log2 fold change (lapatinib)	log2 fold change (crizotinib)	log2 fold change (duvelisib)	log2 fold change (tozasertib)	log2 fold change (doramapimod)	log2 fold change (Tubastatin A)	log2 fold change (pictilisib)	log2 fold change (bafetinib)	log2 fold change (defactinib)	log2 fold change [6]
COX10 (UniProt Q12887)							inactive: 0.174	inactive: -0.22	inactive: -0.157			inactive: -0.01	inactive: 0.06	inactive: 0.004	inactive: -0.039	inactive: 0.072				
COP1 (UniProt Q8NHY2)	inactive: -0.03	inactive: -0.012	inactive: 0	inactive: -0.078	inactive: 0.105	inactive: -0.124	inactive: -0.057			inactive: 0.014	inactive: 0.006	inactive: -0.007	inactive: -0.017		inactive: -0.055	inactive: 0.042				inactive: -0.058
